Record: PubChem BioAssay AID1259261 (Sanger Institute, 2017)

- Purpose: 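siRNA screen across the kinome for kinases that are essential and partners synergising with drugs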 (primary screen)
- Cells: HCC2998 human colorectal cancer cells
- Knock-down reagent: siRNA pool against human genes
- Treatment: anchor drugs BYL719 1 µM, cetuximab 5 µg/ml or trametinib 10 nM, each compared with DMSO vehicle
- Measured: 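Cell viability relative to non-targeting siRNA, averaged over replicates, with robust z-score for siRNA alone and synergy scores with each anchor drug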
- Direction: viability z-score, knock-down alone: higher = more viable cells than controls
- Rule for the call: 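a knock-down is called essential if its robust z-score without drug is under -3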
- Calls: active = essential; inactive = no change
The deposit covers 794 reagents; below is an unselected part. 10 of all reagents (1.3%) count as active. 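Calls reflect knock-down alone without drug; synergy scores with BYL719, cetuximab or trametinib do not affect calls.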 Unmarked entries are inactive. Further read-outs or replicates are left out here. The record does not give: the amount of reagent, the time to read-out.

target gene	viability z-score, knock-down alone
MAGI3	-0.603
MAPKAPK2 (MAPK activated protein kinase 2)	-0.302
NF1 (neurofibromin 1)	1.21
MAP4K2 (mitogen-activated protein kinase kinase kinase kinase 2)	-1.85
PACSIN1 (protein kinase C and casein kinase substrate in neurons 1)	0.078
HIPK1 (homeodomain interacting protein kinase 1)	-0.827
OBSCN	0.746
EFNB3 (ephrin B3)	-0.0849
STK31 (serine/threonine kinase 31)	-0.135
TNIK (TRAF2 and NCK interacting kinase)	0.417
IRAK4 (interleukin 1 receptor associated kinase 4)	0.718
